Consider 60 molecules from PubChem BioAssay AID2685 (National Center for Advancing Translational Sciences (NCATS), 2010).

This experiment in a line: qHTS Assay for Lipid Storage Modulators in Drosophila S3 Cells.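 As to cell number change: cells counted by Cell Tracker Red CMTPX staining in the red channel.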 As to conditions: BODIPY lipid droplet fluorescence, 18-24 h; for cell number change: measured here: cell count max response, cells fed with added oleic acid. An outline of the steps: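 Laser-scanning cytometry quantifies lipid droplet accumulation (500–530 nm total intensity; droplet/cell object ratio) in oleic acid-fed (400 uM added) Drosophila S3 cells treated with a concentration series. 20 uM Triacsin C defined 100% inhibition.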

Where [1] appears, read: measured here: lipid fluorescence (Fed channel) AC50, cells fed with added oleic acid.
The mark [2] stands for this setting: measured here: cell number channel AC50, cells fed with added oleic acid.

Usually AC50 stands for the concentration at which the activity in the assay is half-maximal. Low readings indicate greater potency, high ones weaker potency.

SMILES strings stand for the structures. Some of the results follow. Shown are side measurements of this screen, not its main read-out; they come without a call. Most of these compounds were active or inconclusive in the main read-out, so they are no random draw. Words in brackets tell the shape of the fitted curve; partial curves, single points and poor fits give uncertain potencies.

On to `O=C(NCc1ccccc1F)C1CCN(C(=O)NCc2ccccc2)CC1`, for which the cell number change was -2.92%. The AC50 under setting [1] was 0.00517 µM [falling, full curve, poor fit].
Regarding `COc1ccc(S(=O)(=O)N(CC(=O)NCc2ccncc2)c2cc(C)cc(C)c2)cc1OC`, the cell number change came out at 10.3%. Moreover, the AC50 under setting [1] is 29.1 µM [rising, single point].
In the case of `Cc1c(C)c2c(OCC(=O)Nc3ccc(CCO)cc3)cc3c(c2oc1=O)CCC(C)(C)O3`, the cell number change was -10.5%. Besides, the AC50 under setting [1] was 0.411 µM [falling, full curve].
Regarding `COc1cccc(NC(=O)C(=O)NCCC2CCCCN2S(=O)(=O)c2ccccc2)c1` (centres undefined), the AC50 under setting [1] is 10.3 µM [falling, partial curve].
In the case of `Cc1ccc(NC(=O)CCC(=O)NNC(=O)CCc2ccccc2)c(C)c1`, the half-maximal activity concentration (AC50) under setting [2] is 0.00517 µM [rising, full curve, poor fit].
On to `CCOc1ccc(NC(=O)C2CC(=O)N3CCCN=C3S2)cc1` (centres undefined), for which the cell number change is 8.36%. Moreover, the AC50 under setting [1] is 29.1 µM [rising, single point].
As for `COCCN(CCOC)S(=O)(=O)c1ccc(C(=O)Nc2ccc(S(=O)(=O)Nc3nccc(C)n3)cc2)cc1`, the cell number change is -49.2%. Moreover, the AC50 under setting [2] was 16.4 µM [falling, single point]. The AC50 under setting [1] was 18.4 µM [falling, single point].
`COc1ccc(/C=C/C(=O)Nc2nc(N)n(-c3ccccc3)n2)cc1`: the cell number change stood at 13.3%. Moreover, under setting [1], the AC50 is 0.116 µM [rising, full curve].
Turning to `CCN(CC)Cc1c(C(=O)N/N=C/c2c(Cl)cccc2Cl)nnn1-c1nonc1N`, the cell number change is 23.1%. For the same molecule, the AC50 under setting [1] is 5.17 µM [falling, single point].
Take `O=C(CSc1ccccc1C(=O)NCCCN1CCCC1=O)NCc1ccco1`: the cell number change is -8.3%. Also, under setting [1], the AC50 was 6.51 µM [falling, single point].
As for `COc1ccc([N+](=O)[O-])cc1NC(=O)CSc1ccccc1`, the cell number change stood at 69.6%.
On to `CN(C)S(=O)(=O)c1cccc(C(=O)OCC(=O)Nc2ccccc2OC(F)F)c1`, for which the cell number change is 8.54%. Under setting [1], the AC50 was 0.517 µM [rising, full curve, poor fit].
Regarding `Clc1ccc(Oc2nnnn2-c2ccccc2)cc1`, the cell number change was determined as 14.9%. Also, the AC50 under setting [1] was 0.206 µM [falling, full curve, poor fit].
Turning to `CC1CN(C(=O)C(C)Sc2nc3ccccc3s2)CC(C)O1` (centres undefined), the cell number change was -16.9%. The AC50 under setting [2] is 0.0651 µM [falling, full curve, poor fit].
Turning to `CCCNc1c(F)c(F)c2c(C)c3ccccc3nc2c1F`, the concentration at half-maximal activity (AC50) under setting [1] was 18.4 µM [falling, partial curve].
In the case of `O=C(O)Cn1cc2c(n1)CCCC2`, the cell number change is -19.5%.
`CC(C)c1nc2ccccc2n1CCC(=O)O`: under setting [1], the AC50 is 18.4 µM [falling, partial curve].
In the case of `NC1=NC(=O)C2(COC(c3cccc([N+](=O)[O-])c3)OC2)S1` (centres undefined), the cell number change is -2.08%.
In the case of `COC(=O)c1ccc(C(=O)OC)c(NC(=S)N2CC(C)CC(C)C2)c1` (centres undefined), the cell number change is 22.7%. In addition, the AC50 under setting [1] was 1.64 µM [rising, partial curve, poor fit].
With `Cc1nc(N2CCOCC2)nc(OCCN(C)C)c1[N+](=O)[O-]`, the cell number change worked out at 0.25%. The half-maximal activity concentration (AC50) under setting [1] was 14.6 µM [rising, single point].
Regarding `COc1ccc(CCNC(=S)N2CCN(S(=O)(=O)c3ccc(Cl)cc3)CC2)cc1`, the cell number change was 19.5%.
On to `CCC(Sc1nc(C)cc(=O)[nH]1)C(=O)Nc1nc2c(s1)CCCC2` (centres undefined), for which the concentration at half-maximal activity (AC50) under setting [1] was 4.11 µM [falling, partial curve].
Turning to `COc1ccc(N2CCN(CCCn3c(=S)[nH]c4ccccc4c3=O)CC2)cc1`, the cell number change is -12.6%. For the same molecule, the AC50 under setting [2] was 0.731 µM [falling, full curve]. Under setting [1], the AC50 is 5.17 µM [falling, single point].
Take `COc1ccccc1C(=O)COC(=O)C(CCSC)NC(=O)COc1ccccc1` (centres undefined): the cell number change came out at 37%. In addition, under setting [2], the AC50 was 23.1 µM [rising, single point].
Regarding `COc1ccc(C(=O)NC(=S)Nc2cc3oc4ccccc4c3cc2OC)cc1`, the cell number change was -33.3%. Moreover, the AC50 under setting [2] is 32.6 µM [falling, single point]. Besides, the AC50 under setting [1] is 0.326 µM [rising, full curve, poor fit].
`COc1ccccc1C(=O)NC(=O)COC(=O)c1ccc(Cl)cc1[N+](=O)[O-]`: the cell number change is -4.06%. For the same molecule, the AC50 under setting [1] is 29.1 µM [rising, single point].
As to `O=C(c1ccncc1)N1CCN(c2cccc(C(F)(F)F)c2)CC1`, the cell number change turned out to be 126%. The AC50 under setting [2] is 20.6 µM [rising, partial curve]. Moreover, the AC50 under setting [1] was 1.3 µM [rising, full curve].
Turning to `CC(=O)CSc1nc2c(c(=O)[nH]c(=O)n2C)n1Cc1cccc(Br)c1`, the cell number change was -4.39%. Further, the AC50 under setting [1] was 20.6 µM [falling, single point].
In the case of `Cc1ccc(C(=O)Cn2c(-c3ccccc3)noc2=O)cc1`, the cell number change was determined as 16.5%. In addition, the AC50 under setting [1] was 29.1 µM [rising, single point].
For the molecule `COc1ccccc1N(CC(O)CN1C(=O)NC(C)(C)C1=O)S(=O)(=O)c1ccc(C)cc1` (centres undefined), the cell number change was -6.11%. For the same molecule, the AC50 under setting [1] was 0.0146 µM [falling, full curve, poor fit].
As to `O=C(CCN1CCCCC1)Nc1cccc(Cl)c1`, the AC50 under setting [1] is 23.1 µM [falling, partial curve].
As for `Cc1nc(N)sc1-c1nnc(SCC(=O)Nc2ccccc2C(F)(F)F)n1C`, the cell number change was 64.4%. Further, the AC50 under setting [2] was 14.6 µM [rising, partial curve]. Further, the AC50 under setting [1] is 14.6 µM [rising, partial curve].
Regarding `COc1ccccc1CNC(=O)CCN1C(=O)c2ccccc2C1=O`, the cell number change turned out to be 13.5%. The concentration at half-maximal activity (AC50) under setting [1] was 18.4 µM [rising, single point].
Turning to `O=C(Nc1cccc2ccccc12)/C(=C\c1cccc([N+](=O)[O-])c1)NC(=O)c1cccs1`, the cell number change was -8.47%. Further, under setting [1], the half-maximal activity concentration (AC50) is 29.1 µM [falling, single point].
`O=C1CC(NCC2CCCO2)C(=O)N1c1ccc(F)cc1` (centres undefined): the cell number change is -23.7%. The AC50 under setting [1] was 2.91 µM [falling, partial curve].
Consider `CCc1ccccc1N1C(=O)c2cccc3c(N4CCOCC4)c([N+](=O)[O-])cc(c23)C1=O`, for which the cell number change was -40.7%. For the same molecule, the AC50 under setting [2] is 29.1 µM [falling, single point]. The AC50 under setting [1] was 18.4 µM [falling, partial curve].
For the molecule `COc1ccc(OC)c(CN2CCC(C(=O)N3CCOCC3)CC2)c1`, the cell number change was 11.1%. Moreover, the AC50 under setting [2] is 0.461 µM [falling, single point].
As to `Cc1ccc(C)c(OCCCCN2CCNCC2)c1C`, the cell number change is -16%. Under setting [1], the half-maximal activity concentration (AC50) was 18.4 µM [rising, single point].
As for `COC(=O)NNC(=O)c1ccc(C)c(Br)c1`, the AC50 under setting [1] was 0.82 µM [rising, single point].
With `CN1C(=O)N(C)C2(c3ccccc3)N(C(C)(C)C)C(=O)NC12c1ccccc1` (centres undefined), the cell number change was -18%. The AC50 under setting [1] was 0.00517 µM [rising, full curve, poor fit].
Turning to `Nc1nnc(SCC(=O)NC2CCCC2)s1`, the cell number change was found to be 23.3%. Besides, the AC50 under setting [1] is 29.1 µM [rising, single point].
Take `CC(=O)NC(Cc1ccc(C(C)C)cc1)C(=O)NC1CCN(c2nc(C)cc(C)n2)CC1` (centres undefined): the cell number change was -5.15%.
As for `C/C=C/C(=O)OCC(=O)Nc1nc2ccc(C)cc2s1`, the cell number change was found to be 0.583%. Also, under setting [1], the AC50 is 0.651 µM [rising, full curve, poor fit].
With `CN(C)S(=O)(=O)c1cccc(NC(=O)COC(=O)c2c[nH]c(=O)[nH]c2=O)c1`, the cell number change is -41.8%.
Consider `Cc1cccn2c(=O)nc(SCC(=O)NCc3ccc4c(c3)OCO4)nc12`, for which, under setting [1], the AC50 was 6.51 µM [rising, single point].
Turning to `CCCOc1cccc(C(=O)Nc2cccc3ncccc23)c1`, the cell number change was -21.7%. For the same molecule, under setting [1], the concentration at half-maximal activity (AC50) is 29.1 µM [falling, single point].
Turning to `CC(=O)Nc1ccc(NC(=O)c2ccccc2S(=O)(=O)c2ccccc2[N+](=O)[O-])cc1`, the cell number change is 52.5%. In addition, the AC50 under setting [2] was 29.1 µM [rising, single point]. Also, the AC50 under setting [1] is 29.1 µM [falling, single point].
Regarding `CC1c2cc3c(cc2CCN1CC(=O)Nc1ccc(S(=O)(=O)N2CCCC2)cc1)OCCCO3` (centres undefined), the cell number change is -8.36%. For the same molecule, under setting [1], the AC50 was 29.1 µM [falling, single point].
`COc1ccccc1C1C2=C(CCCC2=O)N(CC(=O)O)C2=C1C(=O)CCC2`: the cell number change worked out at 6.59%. Under setting [1], the AC50 is 25.9 µM [rising, single point].
With `CCOP(=O)(OCC)C(NC(=O)c1cccs1)c1ccccc1` (centres undefined), the cell number change was determined as 6.72%. Moreover, the AC50 under setting [1] was 6.51 µM [rising, single point].
In the case of `Cc1ccc(C)c(NC(=S)NNC(=O)c2csc3c2CCCC3)c1`, the cell number change was -1.94%. Moreover, the AC50 under setting [2] was 0.13 µM [rising, full curve, poor fit]. In addition, the half-maximal activity concentration (AC50) under setting [1] is 0.103 µM [rising, full curve, poor fit].
With `Cc1ccc(NC(=O)CNC(=O)Cc2cccc3ccccc23)nc1`, the AC50 under setting [1] was 16.4 µM [rising, partial curve].
Regarding `COc1ccc(S(=O)(=O)N2CCOCC2)cc1C(=O)NC1CCCCCC1`, the concentration at half-maximal activity (AC50) under setting [1] was 0.326 µM [falling, partial curve].
For `Cc1ccc2nc3c(cc(C(=O)NCC4CCCO4)c(=N)n3C3CCCC3)c(=O)n2c1` (centres undefined), the cell number change was -7.62%. In addition, the AC50 under setting [1] is 29.1 µM [rising, partial curve].
For `Cn1c(COc2ccc([N+](=O)[O-])cc2)nnc1SCC(=O)NCC1CCCO1` (centres undefined), the cell number change is -20%. Besides, the AC50 under setting [1] was 0.206 µM [rising, single point].
For the molecule `CC(C)c1ccc(N(CC(=O)NC2CCCC2)C(=O)CCC(=O)Nc2nccs2)cc1`, the cell number change was -4.62%.
For the molecule `C/C(CC(=O)Nc1ccc(Cl)cc1C(F)(F)F)=N\NC(=O)c1cccs1`, under setting [1], the AC50 was 0.366 µM [rising, full curve, poor fit].
Consider `O=C(CCCN1C(=O)/C(=C/c2cccc(Br)c2)SC1=S)N1CCOCC1`, for which the cell number change was -1.9%. The AC50 under setting [2] was 0.731 µM [rising, single point].
Turning to `CCn1cc(C(=O)NCCCOC(C)C)c(=O)c2cc(S(=O)(=O)N3CCOCC3)ccc21`, the AC50 under setting [1] is 23.1 µM [falling, single point].
In the case of `CCN(CC)C1CCN(C(=O)c2ccc(OC3CCN(Cc4ccccn4)CC3)cc2)C1` (centres undefined), the cell number change was -19.6%. Under setting [1], the AC50 is 0.82 µM [falling, single point].
